No constants are given. Whether binding was seen depends on the method and setting. For some of these results: Binding seen in cells or lysates may run through a third protein. Some entries that bind do so weakly or less than the wild type.
What was measured:
[1] = target: MYCN (human (endogenous in IMR32)) (UniProt P04198); test: co-IP; anti-MYCN antibody (Santa Cruz sc-53993) on Dynabeads, IMR32 whole cell extracts; lysis buffer 50 mM Tris-HCl pH 7.5, 137 mM NaCl, 1 mM DTT, 1 mM EDTA, 0.5% Triton X-100; 4 °C, 4 h; western blot; samples with or without benzonase
[2] = target: MYCN (human (endogenous in IMR32)) (UniProt P04198); test: SEC; IMR32 cell lysate separated by HPLC on a Sepax SRT SEC 300 column; fractions on SDS-PAGE and western blot
[3] = target: Lysine Acetyltransferase 2A (human (endogenous in IMR32)) (UniProt Q92830); test: co-IP; KAT2A co-IP from NB cells, western blot for TADA2A and TADA2B

Chains of the proteins cited; added tags and fusions are not shown.
UniProt P04198: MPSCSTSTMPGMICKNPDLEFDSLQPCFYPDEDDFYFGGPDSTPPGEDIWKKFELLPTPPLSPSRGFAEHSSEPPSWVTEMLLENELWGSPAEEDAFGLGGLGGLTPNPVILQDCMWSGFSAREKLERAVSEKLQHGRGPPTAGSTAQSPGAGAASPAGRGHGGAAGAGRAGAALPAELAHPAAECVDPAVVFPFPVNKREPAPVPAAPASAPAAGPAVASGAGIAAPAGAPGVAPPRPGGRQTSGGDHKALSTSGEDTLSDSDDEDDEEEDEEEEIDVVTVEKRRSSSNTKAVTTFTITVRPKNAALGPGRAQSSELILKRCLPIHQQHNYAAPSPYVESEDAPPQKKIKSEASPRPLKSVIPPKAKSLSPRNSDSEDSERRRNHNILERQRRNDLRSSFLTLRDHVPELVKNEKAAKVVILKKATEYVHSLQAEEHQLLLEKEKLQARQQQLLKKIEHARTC
UniProt Q92830: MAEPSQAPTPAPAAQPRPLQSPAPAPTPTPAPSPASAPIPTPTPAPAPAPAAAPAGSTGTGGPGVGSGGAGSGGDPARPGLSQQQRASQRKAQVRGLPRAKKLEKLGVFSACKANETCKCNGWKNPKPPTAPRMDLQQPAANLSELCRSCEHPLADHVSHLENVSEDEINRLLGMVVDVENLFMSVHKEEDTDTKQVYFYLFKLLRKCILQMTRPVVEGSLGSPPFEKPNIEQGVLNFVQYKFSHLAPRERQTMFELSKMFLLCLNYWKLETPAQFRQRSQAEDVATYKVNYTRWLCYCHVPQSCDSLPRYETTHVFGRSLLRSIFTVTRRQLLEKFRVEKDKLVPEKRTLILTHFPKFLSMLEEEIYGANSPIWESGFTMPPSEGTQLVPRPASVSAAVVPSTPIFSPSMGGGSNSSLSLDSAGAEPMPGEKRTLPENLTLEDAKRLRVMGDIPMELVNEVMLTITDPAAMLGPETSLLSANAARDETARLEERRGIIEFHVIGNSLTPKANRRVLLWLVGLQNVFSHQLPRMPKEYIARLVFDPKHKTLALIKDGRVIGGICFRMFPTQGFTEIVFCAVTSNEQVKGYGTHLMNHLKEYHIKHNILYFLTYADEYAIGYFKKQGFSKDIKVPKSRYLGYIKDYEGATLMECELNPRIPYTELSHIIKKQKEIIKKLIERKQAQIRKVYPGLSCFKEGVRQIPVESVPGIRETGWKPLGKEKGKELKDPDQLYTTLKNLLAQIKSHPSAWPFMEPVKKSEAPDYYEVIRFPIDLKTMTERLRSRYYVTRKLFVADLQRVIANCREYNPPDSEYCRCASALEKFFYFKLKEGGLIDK
UniProt P61244: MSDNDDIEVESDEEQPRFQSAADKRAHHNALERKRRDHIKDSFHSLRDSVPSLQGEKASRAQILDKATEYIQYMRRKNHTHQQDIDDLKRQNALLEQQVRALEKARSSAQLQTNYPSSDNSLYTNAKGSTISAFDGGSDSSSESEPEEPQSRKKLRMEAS
UniProt Q92831: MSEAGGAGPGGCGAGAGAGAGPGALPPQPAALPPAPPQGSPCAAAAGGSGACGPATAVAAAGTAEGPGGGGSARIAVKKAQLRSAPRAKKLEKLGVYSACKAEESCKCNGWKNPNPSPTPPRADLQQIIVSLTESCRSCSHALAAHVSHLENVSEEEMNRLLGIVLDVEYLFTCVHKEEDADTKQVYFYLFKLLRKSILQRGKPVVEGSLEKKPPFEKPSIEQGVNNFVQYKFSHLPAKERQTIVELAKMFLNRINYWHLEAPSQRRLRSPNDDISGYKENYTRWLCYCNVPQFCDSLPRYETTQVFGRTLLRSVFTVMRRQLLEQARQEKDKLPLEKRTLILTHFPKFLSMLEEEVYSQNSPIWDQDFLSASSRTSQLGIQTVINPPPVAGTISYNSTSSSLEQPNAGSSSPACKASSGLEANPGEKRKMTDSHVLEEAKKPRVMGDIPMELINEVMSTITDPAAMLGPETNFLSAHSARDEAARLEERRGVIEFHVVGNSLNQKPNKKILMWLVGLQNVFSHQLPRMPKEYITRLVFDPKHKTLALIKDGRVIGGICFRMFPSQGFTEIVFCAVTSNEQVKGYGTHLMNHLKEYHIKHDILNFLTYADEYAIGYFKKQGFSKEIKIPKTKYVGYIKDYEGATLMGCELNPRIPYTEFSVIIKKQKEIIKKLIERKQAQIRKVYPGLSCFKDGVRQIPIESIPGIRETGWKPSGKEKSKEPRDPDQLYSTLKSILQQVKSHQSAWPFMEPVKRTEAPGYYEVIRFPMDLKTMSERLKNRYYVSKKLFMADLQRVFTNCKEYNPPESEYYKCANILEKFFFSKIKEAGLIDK

## Lysine Acetyltransferase 2A (from UniProt Q92830 1-837)
[1]
  binding: binds
[2]
  binding: binds

## MAX (from UniProt P61244 1-160)
[1]
  binding: binds
[2]
  binding: binds

## KAT2B (from UniProt Q92831 1-832)
[1]
  binding: no binding

B1: TADA2B (protein, UniProt Q86TJ2 1-420)
chain: MAELGKKYCVYCLAEVSPLRFRCTECQDIELCPECFSAGAEIGHHRRYHGYQLVDGGRFTLWGPEAEGGWTSREEQLLLDAIEQFGFGNWEDMAAHVGASRTPQEVMEHYVSMYIHGNLGKACIPDTIPNRVTDHTCPSGGPLSPSLTTPLPPLDISVAEQQQLGYMPLRDDYEIEYDQDAETLISGLSVNYDDDDVEIELKRAHVDMYVRKLKERQRRKNIARDYNLVPAFLGKDKKEKEKALKRKITKEEKELRLKLRPLYQFMSCKEFDDLFENMHKEKMLRAKIRELQRYRRNGITKMEESAEYEAARHKREKRKENKNLAGSKRGKEDGKDSEFAAIENLPGFELLSDREKVLCSSLNLSPARYVTVKTIIIKDHLQKRQGIPSKSRLPSYLDKVLKKRILNFLTESGWISRDAS
[3]
  binding: binds

B2: TADA2A (protein, UniProt O75478 1-443)
chain: MDRLGPFSNDPSDKPPCRGCSSYLMEPYIKCAECGPPPFFLCLQCFTRGFEYKKHQSDHTYEIMTSDFPVLDPSWTAQEEMALLEAVMDCGFGNWQDVANQMCTKTKEECEKHYMKHFINNPLFASTLLNLKQAEEAKTADTAIPFHSTDDPPRPTFDSLLSRDMAGYMPARADFIEEFDNYAEWDLRDIDFVEDDSDILHALKMAVVDIYHSRLKERQRRKKIIRDHGLINLRKFQLMERRYPKEVQDLYETMRRFARIVGPVEHDKFIESHALEFELRREIKRLQEYRTAGITNFCSARTYDHLKKTREEERLKRTMLSEVLQYIQDSSACQQWLRRQADIDSGLSPSIPMASNSGRRSAPPLNLTGLPGTEKLNEKEKELCQMVRLVPGAYLEYKSALLNECNKQGGLRLAQARALIKIDVNKTRKIYDFLIREGYITKG
[3]
  binding: binds
